{
  "source": "patent US11384130B2",
  "about": "(Vasomune Therapeutics Inc., priority 2017, dated 2022)",
  "experiment": "peptide made by a vendor (Fmoc solid-phase peptide synthesis; Wang polystyrene resin (initial functionalization 1.2 mmol/g; 0.8 mmol/g loading); DIC/Oxyma)",
  "conditions": "whole synthesis",
  "key": {"[1]": {"conditions": "TFA salt (Mpa-T7 peptide), TFA salt and acetate salt (Mpa-Br)"}},
  "data": [
    {"substance": "Mpa-His-His-His-Arg-His-Ser-Phe-OH", "values": [
      {"measurement": "final HPLC purity", "setting": "RP-HPLC, scale of the general procedure 45.4 mmol, TFA salt", "result": 96.2, "unit": "%"},
      {"measurement": "crude HPLC purity", "setting": "RP-HPLC, scale of the general procedure 45.4 mmol, TFA salt (Mpa-T7 peptide), TFA salt and acetate salt (Mpa-Br), run 1", "result": 78.5, "unit": "%"},
      {"measurement": "crude HPLC purity", "setting": "RP-HPLC, scale of the general procedure 45.4 mmol, TFA salt (Mpa-T7 peptide), TFA salt and acetate salt (Mpa-Br), run 2", "result": 70.5, "unit": "%"},
      {"measurement": "isolated mass", "setting": "TFA salt", "result": 11.4, "unit": "g"},
      {"measurement": "crude mass", "setting": "[1]", "result": 31.5, "unit": "g"},
      {"measurement": "isolated mass", "setting": "[1]", "result": 6.7, "unit": "g"},
      {"measurement": "isolated yield", "setting": "net peptide, scale of the general procedure 45.4 mmol, TFA salt (Mpa-T7 peptide), TFA salt and acetate salt (Mpa-Br)", "result": 25.8, "unit": "%"},
      {"measurement": "isolated yield", "setting": "overall from resin loading step, scale of the general procedure 45.4 mmol, TFA salt", "result": 43.7, "unit": "%"},
      {"measurement": "crude yield", "setting": "resin weight gain, scale 45.4 mmol, TFA salt (Mpa-T7 peptide), TFA salt and acetate salt (Mpa-Br)", "result": 89.1, "unit": "%"},
      {"measurement": "crude yield", "setting": "scale of the general procedure 45.4 mmol, TFA salt (Mpa-T7 peptide), TFA salt and acetate salt (Mpa-Br)", "result": 91.8, "unit": "%"}
    ]}
  ]
}
